Measurements from PubChem BioAssay AID651640 (Broad Institute, 2012).
In all, about 350,000 compounds went through this assay and about 6,000 (1.7%) were called active. This list was built around the results that the source calls inconclusive (neither active nor inactive); the mix of calls is not that of the screen. Cut-off read from the data, not from the text of the source: active = CPE inhibition above about 20% (passing the limit was not always enough); inconclusive = no clear call, values can overlap the other calls; tested in BHK-21 cells. Where a structure was tested more than once in an assay, its records may differ in their call.

assay: protection of cells from dengue 2 killing – plate reader, single concentration, primary screen (AID 651640); details: DENV2-infected cells, cytopathic effect rescue, at 9.99 µM, stronger effect = higher value;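 note: 0% = median of neutral control wells and 100% = median of positive control wells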

SMILES	CPE inhibition
CC(C)NC(=O)N(C)C[C@H]1Oc2c(NS(=O)(=O)c3ccc(F)cc3)cccc2C(=O)N([C@H](C)CO)C[C@H]1C	inactive: 3.29%
C[C@H]1CN([C@@H](C)CO)C(=O)Cc2cc(NC(=O)Cn3cnnn3)ccc2O[C@@H]1CN(C)S(C)(=O)=O	inactive: 1.8%
Cc1ccccc1-c1cnc2c(c1)C(=O)N([C@@H](C)CO)C[C@H](C)[C@H](CN(C)C(=O)c1ccc(F)cc1)O2	inconclusive: 25.6%
C[C@H](CO)N1C[C@H](C)[C@H](CN(C)C(=O)CN(C)C)Oc2ncc(C3=CCCC3)cc2C1=O	inactive: -8.06%
CCN1C/C(=C\c2cccc([N+](=O)[O-])c2)C(=O)/C(=C/c2cccc([N+](=O)[O-])c2)C1	active: 33.2%
COc1cc(OC)cc(C(=O)OCC(=O)NC(c2ccccc2)c2ccccc2)c1	inactive: -1.12%
CC(=O)N(C)C[C@H]1Oc2cc(-c3cncnc3)ccc2S(=O)(=O)N([C@H](C)CO)C[C@@H]1C	inactive: 12.3%
COc1cc(S(=O)(=O)Nc2c(C)nn(C)c2C)ccc1NC(C)=O	inconclusive: 26.3%
C[C@H](CO)N1C[C@H](C)[C@@H](CN(C)S(=O)(=O)c2cn(C)cn2)Oc2c(NS(=O)(=O)c3ccccc3)cccc2C1=O	active: 23.1%
CN(Cc1nc(-c2ccc(Cl)cc2)no1)C(=O)c1ccco1	inconclusive: 25.8%
Cc1c(Cl)cccc1NC(=S)C(=C([O-])c1ccc(Cl)s1)[n+]1ccccc1	inconclusive: 38.2%
O=C(CN1CCOCC1)N1CC[C@H]2[C@H](CO)Nc3ccc(Br)cc3[C@H]21	inactive: -8.65%
CC1=C(CC(=O)O)c2cc(F)ccc2/C1=C\c1ccc(S(C)=O)cc1 (centres undefined)	inconclusive: 47.8%
O=C(O)c1ccccc1C(=O)Nc1cc(-c2ccccc2)[nH]n1	inconclusive: 57.2%
C[C@@H]1CN([C@@H](C)CO)C(=O)c2cc(NC(=O)c3ccncc3)ccc2O[C@@H](C)CCCCO[C@@H]1CN(C)C(=O)Nc1ccc(C(F)(F)F)cc1	active: 54.7%
Cc1ccc(S(=O)(=O)Nc2cccc3c2O[C@@H](CN(C)CC2CCCCC2)[C@@H](C)CN([C@H](C)CO)C3=O)cc1	inconclusive: 30.4%
CCOc1cccc2cc(C(=O)NC(C)c3ccccc3)c(=N)oc12 (centres undefined)	inconclusive: 26.7%
O=C(C1CC1)N1C[C@@H]2N[C@H](C1)C2c1ccc(-c2cccc(F)c2)cc1 (some centres undefined)	active: 59.1%
C[C@@H]1CCCCO[C@H](CN(C)C(=O)Nc2ccc3c(c2)OCO3)[C@H](C)CN([C@@H](C)CO)C(=O)c2cc(NS(=O)(=O)c3ccc(Cl)cc3)ccc2O1	inconclusive: 20.4%
Cc1c(C(=O)Nc2c(C)n(C)n(-c3ccccc3)c2=O)oc2c(Cl)cccc12	inconclusive: 23%
CCCCCCCCN1[C@@H](CC(=O)OC)c2cc(C(F)(F)F)ccc2S1(=O)=O	inconclusive: 64%
C[C@@H]1CCCCO[C@@H](CN(C)S(=O)(=O)c2cccs2)[C@@H](C)CN([C@H](C)CO)C(=O)c2cc(NS(=O)(=O)c3cn(C)cn3)ccc2O1	inconclusive: 23.1%

SMILES	CPE inhibition
CC(C)c1cc(C(=O)Nc2ccc3c(c2)OCO3)no1	inactive: -10.3%
CN1C(=O)c2cc(NC(=O)c3ccc(C(F)(F)F)cc3)ccc2OC[C@H]2O[C@H](CC(=O)NC3Cc4ccccc4C3)CC[C@@H]21	inactive: -3.85%
COc1ccc(N(CC(=O)N2CCN(C)CC2)S(=O)(=O)c2cc(C)ccc2OC)cc1Cl	active: 83.2%
O=C(O)c1ccc(CSCc2ccccc2Cl)o1	inconclusive: 36.1%
Cc1ccccc1S(=O)(=O)N1CC[C@@H]2[C@@H](CO)Nc3ccc(-c4ccccc4F)cc3[C@@H]21	active: 42%
CCCNC(=O)N1CC2(C1)[C@@H](c1ccccc1)[C@H](CO)N2C(=O)C1CCC1	inconclusive: 26.8%
C[C@@H](NC(=O)C[C@@H]1CC[C@H](NC(=O)c2cccnc2)[C@H](CO)O1)c1ccccc1	inactive: -0.736%
O=C(NCC[C@H]1CC[C@H](NC(=O)c2cccnc2)[C@H](CO)O1)Nc1ccc(C(F)(F)F)cc1	inconclusive: 44.9%
O=C(CN1CCOCC1)N1CCCCN2[C@H](CO)[C@H](c3ccc(-c4ccccc4F)cc3)[C@H]2C1	inconclusive: 20.1%
CC(=O)N[C@@H]1CC[C@H](CCNC(=O)C2CCCC2)O[C@H]1CO	active: 89.7%
C[C@H](CO)N1C[C@H](C)[C@@H](CN(C)C)OCCCC[C@H](C)Oc2ccc(NC(=O)c3ccncc3)cc2C1=O	active: 64.8%
O=C(C[C@@H]1CC[C@H]2NC[C@@H](O)COC[C@@H]2O1)NCCc1ccccc1	inactive: -1.56%
CC(C)NC(=O)N(C)C[C@@H]1Oc2c(NC(=O)Nc3ccccc3)cccc2C(=O)N([C@H](C)CO)C[C@H]1C	inconclusive: 35.6%
O=C(NCC1CCCO1)c1ccc(CS(=O)(=O)c2ccc(Br)cc2)o1 (centres undefined)	inconclusive: 20.3%
O=C1OCCC1Sc1nnc(-c2ccc(Cl)cc2Cl)o1 (centres undefined)	inactive: -3.06%
C[C@H]1CN([C@@H](C)CO)C(=O)CCCn2nncc2CO[C@H]1CN(C)C(=O)Nc1ccc2c(c1)OCCO2	inactive: -0.931%
CN1C(=O)c2cc(NS(=O)(=O)c3ccccc3Cl)ccc2OC[C@H]2O[C@@H](CC(=O)O)CC[C@@H]21	inconclusive: 73.2%
O=C(C[C@H]1C=C[C@@H](NC(=O)NC2CCCCC2)[C@H](CO)O1)NCc1ccccc1	inconclusive: 20.6%
CCOC(=O)[C@@H]1[C@H]2COc3ccc(Br)cc3[C@@H]2N2C(=O)N(c3cccc(Cl)c3)C(=O)[C@@]12C	active: 67.6%
CN(C(=O)CCNC(=O)Cn1cnc2ccccc2c1=O)c1ccc(F)cc1	inconclusive: 21.7%
COc1ccc(-c2oc(=O)c3cc(OC)c(OC)cc3c2C#C[C@]2(O)CC[C@H]3[C@@H]4CCc5cc(OC)ccc5[C@H]4CC[C@@]32C)cc1	inconclusive: 84.7%
COc1ccccc1NC(=O)COC(=O)C12CC3CC(CC(Br)(C3)C1)C2	inconclusive: 29.5%

Among those listed so far, these contain a Cl atom:
SMILES	CPE inhibition
CN(Cc1nc(-c2ccc(Cl)cc2)no1)C(=O)c1ccco1	inconclusive: 25.8%
Cc1c(Cl)cccc1NC(=S)C(=C([O-])c1ccc(Cl)s1)[n+]1ccccc1	inconclusive: 38.2%
C[C@@H]1CCCCO[C@H](CN(C)C(=O)Nc2ccc3c(c2)OCO3)[C@H](C)CN([C@@H](C)CO)C(=O)c2cc(NS(=O)(=O)c3ccc(Cl)cc3)ccc2O1	inconclusive: 20.4%
Cc1c(C(=O)Nc2c(C)n(C)n(-c3ccccc3)c2=O)oc2c(Cl)cccc12	inconclusive: 23%
COc1ccc(N(CC(=O)N2CCN(C)CC2)S(=O)(=O)c2cc(C)ccc2OC)cc1Cl	active: 83.2%
O=C(O)c1ccc(CSCc2ccccc2Cl)o1	inconclusive: 36.1%
O=C1OCCC1Sc1nnc(-c2ccc(Cl)cc2Cl)o1 (centres undefined)	inactive: -3.06%
CN1C(=O)c2cc(NS(=O)(=O)c3ccccc3Cl)ccc2OC[C@H]2O[C@@H](CC(=O)O)CC[C@@H]21	inconclusive: 73.2%
CCOC(=O)[C@@H]1[C@H]2COc3ccc(Br)cc3[C@@H]2N2C(=O)N(c3cccc(Cl)c3)C(=O)[C@@]12C	active: 67.6%
